Results are given in words; binding and its absence hold for the method and conditions named. Binding calls can cover weak binding; strength is not graded here.
How the values were obtained:
Test in all cases: pull-down; GST fusion (bait) on Glutathione-Sepharose 4B, 6His-tagged prey, 50 mM Tris-HCl pH 7.5, 4 °C, wash with 50 mM NaCl, elution with 500 mM NaCl, anti-6His immunoblot; both purified
[1] = target: GST-GalS (Salmonella enterica serovar Typhimurium) (UniProt P41030)
[2] = target: GST-GntR (Salmonella enterica serovar Typhimurium)
[3] = target: GST-NarL (Salmonella enterica serovar Typhimurium)
[4] = target: GST-PdhR (Salmonella enterica serovar Typhimurium) (UniProt E1W823)
[5] = target: GST-YjfQ (Salmonella enterica serovar Typhimurium)

By UniProt entry, the sequences of proteins in these tests, tags left out. Where a name states a change or a piece, a line headed by the entry shows the natural chain unless it says otherwise.
UniProt P41030: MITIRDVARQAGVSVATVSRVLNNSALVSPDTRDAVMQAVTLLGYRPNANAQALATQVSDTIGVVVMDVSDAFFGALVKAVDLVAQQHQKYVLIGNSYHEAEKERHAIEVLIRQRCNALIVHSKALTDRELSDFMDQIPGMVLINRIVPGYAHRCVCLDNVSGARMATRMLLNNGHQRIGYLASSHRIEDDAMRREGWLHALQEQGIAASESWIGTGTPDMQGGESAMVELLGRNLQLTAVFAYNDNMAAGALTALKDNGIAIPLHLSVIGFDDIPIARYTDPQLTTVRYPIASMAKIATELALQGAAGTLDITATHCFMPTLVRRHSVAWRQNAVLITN
UniProt E1W823: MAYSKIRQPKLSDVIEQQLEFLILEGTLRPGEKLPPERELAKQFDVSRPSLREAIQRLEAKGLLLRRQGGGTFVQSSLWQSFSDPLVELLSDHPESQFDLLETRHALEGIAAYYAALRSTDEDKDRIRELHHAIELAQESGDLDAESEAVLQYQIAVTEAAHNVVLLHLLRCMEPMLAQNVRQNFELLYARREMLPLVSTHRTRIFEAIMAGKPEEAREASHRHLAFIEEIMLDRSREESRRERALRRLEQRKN

Measured: binding

TrxA-6His (recombinant thioredoxin, wild type) (from UniProt P0AA28 1-109)
binds: all assays above

— article PMC9584953
